From patent publication US20050026285A1 (Harvard, published 2005)
These are yes or no findings as the source states them, for the method shown. Some binding calls cover weakened binding; strength is not graded here. Where a sequence is shown, tags or fusion partners need not be part of it.

Assays:
[1] = biological target: T1, endogenous TRAF2 of 293T cells (human) (UniProt Q12933); experiment: anti-MYC IP from transfected 293T cells, blot with anti-TRAF antibodies
T1 sequence (looked up): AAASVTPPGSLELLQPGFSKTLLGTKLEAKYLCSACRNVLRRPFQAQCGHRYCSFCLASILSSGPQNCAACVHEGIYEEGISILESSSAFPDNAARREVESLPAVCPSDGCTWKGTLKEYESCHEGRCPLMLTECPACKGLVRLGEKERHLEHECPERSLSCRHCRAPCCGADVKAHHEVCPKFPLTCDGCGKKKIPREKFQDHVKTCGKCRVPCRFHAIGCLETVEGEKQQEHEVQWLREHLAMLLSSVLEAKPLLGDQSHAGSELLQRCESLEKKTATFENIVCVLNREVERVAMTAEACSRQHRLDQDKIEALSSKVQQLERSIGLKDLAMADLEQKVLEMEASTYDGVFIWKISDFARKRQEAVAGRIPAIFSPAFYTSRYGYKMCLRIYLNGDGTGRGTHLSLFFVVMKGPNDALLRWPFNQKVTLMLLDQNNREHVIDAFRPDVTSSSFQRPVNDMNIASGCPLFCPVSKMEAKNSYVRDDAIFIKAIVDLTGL

[2] = biological target: T1, endogenous TRAF2 of 293T cells (human); experiment: anti-MYC IP from transfected 293T cells, blot with anti-TRAF2 mAb

- binding [1]: binds
- binding [2]: binds
B1: MYC-tagged KRC tr (KRC amino acids 204-1055 with N-terminal myc epitope tag) (protein, not shown: small tags and cut ends)
chain: PSVLQKHIRSHTGERPYPCGPCGFSFKTKSNLYKHRKSHAHRIKAGLASGMGGEMYPHGLEMERIPGEEFEEPTEGESTDSEEETSATSGHPAELSPRPKQPLLSSGLYSSGSHSSSHERCSLSQSSTAQSLEDPPPFVEPSSEHPLSHKPEDTHTIKQKLALRLSERKKVIDEQAFLSPGSKGSTESGYFSRSESAEQQVSPPNTNAKSYAEIIFGKCGRIGQRTAMLTATSTQPLLPLSTEDKPSLVPLSVPRTQVIEHITKLITINEAVVDTSEIDSVKPRRSSLSRRSSMESPKSSLYREPLSSHSEKTKPEQSLLSLQHPPSTAPPVPLLRSHSMPSAACTISTPHHPFRGSYSFDDHITDSEALSRSSHVFTSHPRMLKPQPAIELPLGGEYSSEEPGPSSKDTASKPSDEVEPKESELTKKTKKGLKTKGVIYECNICGARYKKRDNYEAHKKYYCSELQIAKPISAGTHTSPEAEKSQIEHEPWSQMMHYKLGTTLELTPLRKRRKEKSLGDEEEPPAFESTKSQFGSPGPSDAARNLPLESTKSPAEPSKSVPSLEGPTGFQPRTPKPGSGSESGKERRTTSKEISVIQHTSSFEKSDSLEQPSGLEGEDKPLAQFPSPPPAPHGRSAHSLQPKLVRQPNIQVPEILVTEEPDRPDTEPEPPPKEPEKTEEFQWPQRSQTLAQLPAEKAPPKKKRLRLAEMAQSSGESSFESSVPLSRSPSQESNVSLSGSSRSASFERDDHGKAEAPDPSSDMRPKPLGTHMLTVPSHHPHAREMRRSASEQSPNVSHSAHMTETRSKSFDYGSLSLTGPSAPAPVAPPAGEAPPERRKCFLVRSPSLSRPP
